Results are given in words; binding and its absence hold for the method and conditions named. Binding seen in cells or lysates may run through a third protein. Some results given as binding are weak or reduced against the parent protein; the word gives no strength.
Biological target: FLAG-RAB5C overexpressed in Scr and Mfn1KD C2C12 myoblasts (UniProt P51148)
Assay: co-IP; anti-FLAG magnetic beads O/N at 4 °C with lysate of stable Scr or Mfn1KD C2C12 myoblasts overexpressing FLAG-RAB5C; Tris HCl 50 mM, NaCl 150 mM, EDTA 5 mM, 1% digitonin; washes 0.1% digitonin; eluted with FLAG peptide; immunoblot; more Mfn2 in the IP of Mfn1KD cells

Chains of the proteins cited; added tags and fusions are not shown.
UniProt P51148: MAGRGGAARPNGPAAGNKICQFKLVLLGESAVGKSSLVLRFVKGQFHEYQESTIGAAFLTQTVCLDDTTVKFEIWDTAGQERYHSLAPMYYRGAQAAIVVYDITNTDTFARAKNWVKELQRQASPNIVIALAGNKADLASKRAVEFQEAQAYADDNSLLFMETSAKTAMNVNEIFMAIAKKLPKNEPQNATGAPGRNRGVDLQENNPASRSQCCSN

binding: binds
B1: Mfn2 (endogenous, C2C12 myoblasts) (protein, UniProt Q80U63 1-757)
chain: MSLLFSRCNSIVTVKKDKRHMAEVNASPLKHFVTAKKKINGIFEQLGAYIQESASFLEDTHRNTELDPVTTEEQVLDVKGYLSKVRGISEVLARRHMKVAFFGRTSNGKSTVINAMLWDKVLPSGIGHTTNCFLRVGGTDGHEAFLLTEGSEEKKSVKTVNQLAHALHQDEQLHAGSMVSVMWPNSKCPLLKDDLVLMDSPGIDVTTELDSWIDKFCLDADVFVLVANSESTLMQTEKQFFHKVSERLSRPNIFILNNRWDASASEPEYMEEVRRQHMERCTSFLVDELGVVDRAQAGDRIFFVSAKEVLSARVQKAQGMPEGGGALAEGFQVRMFEFQNFERQFEECISQSAVKTKFEQHTVRAKQIAEAVRLIMDSLHIAAQEQRVYCLEMREERQDRLRFIDKQLELLAQDYKLRIKQITEEVERQVSTAMAEEIRRLSVLVDEYQMDFHPSPVVLKVYKNELHRHIEEGLGRNLSDRCSTAIASSLQTMQQDMIDGLKPLLPVSMRNQIDMLVPRQCFSLSYDLNCDKLCADFQEDIEFHFSLGWTMLVNRFLGPKNSRRALLGYSDQVQRPLPLTPANPSMPPLPQSSLTQEELMVSMVTGLASLTSRTSMGILVVGGVVWKAVGWRLIALSFGLYGLLYVYERLTWTTKAKERAFKRQFVEYASEKLQLIISYTGSNCSHQVQQELSGTFAHLCQQVDITRDNLEQEIAAMNKKVEALDSLQSRAKLLRNKAGWLDSELNMFTHQYLQPSR

Source: PMC9822926
